Library compounds against nucleic acid targets

Targets, with sequences 5′ to 3′:
TPP: TPP riboswitch RNA three-way junction, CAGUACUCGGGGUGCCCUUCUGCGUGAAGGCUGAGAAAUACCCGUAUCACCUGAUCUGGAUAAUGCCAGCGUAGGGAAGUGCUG. About 160 hits among about 24,000 compounds.
PreQ1: PreQ1 riboswitch RNA pseudoknot, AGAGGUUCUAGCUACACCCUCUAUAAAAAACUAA. From B. subtilis. About 170 hits among about 24,000 compounds.
SAM-II: SAM-II riboswitch RNA pseudoknot, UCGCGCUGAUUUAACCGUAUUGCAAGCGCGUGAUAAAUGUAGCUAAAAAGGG. About 200 hits among about 21,000 compounds.

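Each compound is printed as two spots on a slide made to bind it covalently, so it has no test concentration; the read-out is fluorescence of the bound, labelled oligonucleotide. For the PreQ1, TPP and SAM-II riboswitches the laboratory earlier reported (doi:10.1038/s41467-019-09493-3) 1 µM RNA, 2 h, and a rule that included a mean Z-score above 3 (spot signal-to-noise against the whole library), a score well above that on a control array, and duplicate spots agreeing (coefficient of variation under 100). The data file gives only the calls; its cut-offs may differ, and compounds hitting several targets are kept. These are primary screening calls, not affinities; a compound without a hit may have attached poorly or may still bind in solution.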
“hit” means called a hit, “no hit” means screened and not called a hit.
The compounds are a random part of those screened.
A target missing from an entry has no call listed here.
A dash means that no call is listed here.

Compound: COc1cccc(CCN[C@H]2CS(=O)(=O)C[C@@H]2S(=O)(=O)c2ccc(C)cc2)c1
TPP: no hit
PreQ1: no hit

Compound: Cc1cc(C)n(CC(C)NC2CCN(c3ncccc3C#N)CC2)n1 (stereo not shown)
TPP: no hit
PreQ1: no hit
SAM-II: no hit

Compound: Cc1oc(-c2ccccc2)nc1CC(=O)N1CCOCC(O)C1 (stereo not shown)
TPP: no hit
PreQ1: no hit
SAM-II: no hit

Compound: C=CCn1c(=N)n(CC(O)COc2ccc(OC)cc2)c2ccccc21 (stereo not shown)
TPP: no hit
PreQ1: no hit
SAM-II: no hit

Compound: O=C(O)c1[nH]nc(O)c1CCO
TPP: no hit
PreQ1: no hit
SAM-II: no hit

Compound: Cc1ccc2nc(NC3=NCN(CCO)CN3)nc(C)c2c1
TPP: no hit
PreQ1: no hit
SAM-II: no hit

Compound: N#Cc1c(N)nc2n1CCC2
TPP: no hit
PreQ1: no hit
SAM-II: no hit

Compound: CSc1ccc2cc(CN(C)CCO)c(-c3ccc(Cl)cc3)nc2c1
TPP: no hit
PreQ1: no hit
SAM-II: no hit

Compound: Cc1ccc(C)c(NC(CNS(=O)(=O)c2ccccc2)c2ccccc2)c1 (stereo not shown)
TPP: no hit
PreQ1: no hit

Compound: C[C@@H](O)[C@H](NCC(=O)NCc1ccccc1F)C(N)=O
TPP: no hit
PreQ1: no hit
SAM-II: no hit

Compound: COC(=O)c1ccc(NC2OC(=O)c3c2ccc(OC)c3OC)cc1 (stereo not shown)
TPP: no hit
PreQ1: no hit
SAM-II: no hit

Compound: Cc1noc(C)c1CN1CC[C@@H](c2ccc3c(c2)OCO3)[C@H](O)C1
TPP: no hit
PreQ1: no hit
SAM-II: no hit

Compound: NC(=O)c1ccc(C(=O)Nc2ccc([As](=O)(O)O)cc2)cc1
TPP: no hit
PreQ1: no hit
SAM-II: no hit

Compound: Cc1ccc(S(=O)(=O)NCCCNC(=O)c2ccc3[nH]c(CO)nc3c2)cc1
TPP: no hit
PreQ1: no hit
SAM-II: no hit

Compound: CCCOC(C)CNc1nc(N)nc(C)c1C (stereo not shown)
TPP: no hit
PreQ1: no hit
SAM-II: no hit

Compound: CC(C)CCNc1c(-c2ccc(F)cc2)[nH]c2c(C#N)cnn12
TPP: no hit
PreQ1: no hit

Compound: CN(CCc1noc(C2CC2)n1)C(=O)c1cn([C@H]2CC[C@@H](N)CC2)nn1
TPP: no hit
PreQ1: no hit
SAM-II: no hit

Compound: CCNC(=O)[C@@H]1C[C@@H](N)CN1Cc1cccc(CN2CCOCC2)c1
TPP: no hit
PreQ1: no hit
SAM-II: no hit

Compound: COCCCN1CC(=O)C(c2nc3ccccc3[nH]2)=C1N
TPP: no hit
PreQ1: no hit

Compound: COC(=O)C1=C(N)Oc2cc(C)[nH]c(=O)c2C1c1ccccc1 (stereo not shown)
TPP: no hit
PreQ1: no hit
SAM-II: no hit

Compound: Cc1cccc(Nc2c(-c3ccc4c(c3)OCC(=O)N4)c(=O)c2=O)c1C
TPP: no hit
PreQ1: no hit

Compound: NC1(c2cccc(Cl)c2)CCC1
TPP: no hit
PreQ1: no hit
SAM-II: no hit

Compound: Cc1ccc2cc(CN(CCO)CCO)c(=O)[nH]c2c1
TPP: no hit
PreQ1: no hit
SAM-II: no hit

Compound: Nc1nonc1C(=O)NCCNCc1c(OCc2ccc(Cl)cc2)ccc2ccccc12
TPP: no hit
PreQ1: no hit
SAM-II: no hit

Compound: COCCN1Cc2nc3cc(N)ccc3n2CC1=O
TPP: no hit
PreQ1: no hit
SAM-II: no hit

Compound: CN1C2=CC(=O)C(=NNC(N)=O)C=C2CC1S(=O)(=O)[O-].[Na+] (stereo not shown)
TPP: no hit
PreQ1: no hit
SAM-II: no hit

Compound: C=CCNc1oc(-c2ccc(S(=O)(=O)N3CCCCC3)cc2)nc1C#N
TPP: no hit
PreQ1: no hit

Compound: COc1ccc(-c2noc(-c3cccnc3NCc3ccco3)n2)cc1
TPP: no hit
PreQ1: no hit

Compound: CC1(C)CC(Nc2ccc(Nc3ccccc3)cc2)CC(C)(C)N1
TPP: no hit
PreQ1: no hit
SAM-II: no hit

Compound: O=C1OCC/C1=C\c1ccc2c(c1)OCO2
TPP: no hit
PreQ1: no hit
SAM-II: no hit

Compound: COc1ccc(S(=O)(=O)N(C)CCO)cc1C(=O)O
TPP: no hit
PreQ1: no hit
SAM-II: no hit

Compound: CN(CCC(O)c1ccccc1)C(=O)c1cnc(-c2ccccn2)nc1O (stereo not shown)
TPP: no hit
PreQ1: no hit
SAM-II: no hit

Compound: CCc1nc(NCCN(CC)CC)c(C#N)c2c1COC(C)(C)C2
TPP: no hit
PreQ1: no hit
SAM-II: no hit

Compound: Cc1ccc(OC2(C(=O)NCCc3nc(C)c(C)s3)CCNCC2)cc1
TPP: no hit
PreQ1: no hit
SAM-II: no hit

Compound: COc1cccc(Cc2nc(-c3ccncc3)nn2[C@@H]2CCCC[C@H]2O)c1
TPP: no hit
PreQ1: no hit
SAM-II: no hit

Compound: COC(=O)[C@@H]1C[C@@H](O)CN1C(=O)c1coc(COc2cccc(F)c2)n1
TPP: no hit
PreQ1: no hit
SAM-II: no hit

Compound: CC(OC(=O)Nc1cccc(Cl)c1)C(=O)O (stereo not shown)
TPP: no hit
PreQ1: no hit
SAM-II: no hit

Compound: Cc1ccc2c(c1)c(CNC(=O)c1cn3c(n1)CNCC3)nn2C
TPP: no hit
PreQ1: no hit
SAM-II: no hit

Compound: COc1ccc2c(c1OC)C(=O)OC2Nc1ccc(C)c(C)c1 (stereo not shown)
TPP: no hit
PreQ1: no hit
SAM-II: no hit

Compound: CCCCSc1nc(N)cc(N2CCC(N(C)C)C2)n1 (stereo not shown)
TPP: no hit
PreQ1: no hit
SAM-II: no hit

Compound: CSCCc1nc(-c2ccc(-c3cc[nH]n3)cc2)n(CCO)n1
TPP: no hit
PreQ1: no hit
SAM-II: no hit

Compound: NC(=O)C1=C(Nc2ccc(F)cc2F)c2ccccc2S1(=O)=O
TPP: no hit
PreQ1: no hit

The first 3 entries again:

Compound,TPP,PreQ1,SAM-II
COc1cccc(CCN[C@H]2CS(=O)(=O)C[C@@H]2S(=O)(=O)c2ccc(C)cc2)c1,no hit,no hit,-
Cc1cc(C)n(CC(C)NC2CCN(c3ncccc3C#N)CC2)n1 (stereo not shown),no hit,no hit,no hit
Cc1oc(-c2ccccc2)nc1CC(=O)N1CCOCC(O)C1 (stereo not shown),no hit,no hit,no hit

Data from the ROBIN nucleic acid binder screens, doi:10.1002/anie.202211358.